Experimental findings from paper PMC4416010 are described below.

Results are given in words; binding and its absence hold for the method and conditions named. Some results given as binding are weak or reduced against the parent protein; the word gives no strength. Tags and fused reporters may be left off the sequences shown.

The assay deals with T1, PkaI_(257-380) interaction domain fused to the Cya-T18 domain (Streptomyces coelicolor A3(2)) (UniProt Q9L0H9).
T1 sequence: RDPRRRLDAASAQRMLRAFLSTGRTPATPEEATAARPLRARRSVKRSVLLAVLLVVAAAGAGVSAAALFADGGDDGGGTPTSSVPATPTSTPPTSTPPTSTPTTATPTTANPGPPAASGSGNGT
Briefly: two-hybrid; bacterial two-hybrid (T18/T25 domains of B. pertussis adenylate cyclase) in E. coli cya mutant BTH101; PkaI_(257-380) on T18 (pUT18c) as bait, M145 genomic libraries in pKT25 as prey; growth on M63 minimal agar with lactose; confirmed by retransformation and sequencing.

B1: SCO2097_(21-120) fragment of SCO2097 (domain or fragment, UniProt Q9S2V9 21-120)
chain: EDPKFATALEGSGLRTYTRRRVYQAVAGFLVGIALLMAGMVAQQVWLSVVGFLVMLGCAVLAVTGWRKAPKPGEQQQAAGAGPQAARRQGRQKRSMMDRI
B1: the binding entry is recorded as “binds”.
